# Reference: PubChem BioAssay AID540303 (National Center for Advancing Translational Sciences (NCATS), 2011)
# Hit rate of the full screen: of about 330,000 compounds, about 1,000 (0.3%) were called active. The inconclusive results got no clear call from the source; some entries with a clear call stand among them for comparison. The call rests on the fitted dose curve; in most records, active means well fitted inhibition curve with a large enough effect; inconclusive means small, poorly fitted or top-dose-only effect; inactive means no such curve, though single readings can be large or run the other way; tested in mouse RAW 264.7 cells. Where the call is inconclusive, the potency comes from a doubtful curve fit. A structure can be active in one record and inactive in another.
# Assay: qHTS for Inhibitors of Cell Surface uPA Generation; further: nearly all actives have a fitted effect of over 55% in size
# Conditions: cell surface uPA generation assay; series mostly up to 38.3 µM; activity change, negative = inhibition: at the top concentration
# Summary of the method: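 RAW 264.7 cells (4000/well) were plated overnight at 37 C and then given compounds in a 1:5 series (up to 38.3 uM final) plus reagent for 24 h. Intracellular ATP was measured by ATP-Lite luminescence and stays elevated when uPA-dependent LF entry is blocked.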
# On the % scale 0 is the no-effect control and ±100 the full control effect; potency means the concentration at half of the fitted maximal effect.
Structure (SMILES),"activity change, negative = inhibition",Potency
N[C@@H](C(=O)N[C@@H]1C(=O)N2C(C(=O)O)=C(Cl)CS[C@H]12)c1ccccc1,inactive: 11.4%,
O=C1CCC(C(=O)N2CCCC(C(=O)c3ccc4ccccc4c3)C2)=NN1 (configuration not stated),,"inconclusive: 2.82 µM [inhibitor, full curve, poor fit]"
COc1ccc(-c2nc(C#N)c(N3CCCCCC3)o2)cc1OC,inactive: 3.3%,
CCCCCCCCCCCCCCCC[n+]1ccccc1,,active: 0.708 µM
NC(=O)CC(NC(=O)Cc1cccc2ccccc12)c1ccc(NCCOc2ccccc2)c([N+](=O)[O-])c1 (configuration not stated),,"inconclusive: 28.2 µM [inhibitor, single point]"
CCn1nc(NC(=O)C(C)(C)C)c2cc3cccc(C)c3nc21,,"inconclusive: 2.82 µM [inhibitor, single point]"
Cn1c(SCC(=O)NCc2cccs2)nnc1-c1cccs1,inactive: 4.13%,
O=C1N/C(=N\N=C\c2ccco2)SC1Cc1ccccc1[N+](=O)[O-] (configuration not stated),,"inconclusive: 2.82 µM [inhibitor, partial curve, poor fit]"
COc1ccc2cc(/C=N/NC(=O)c3ccc(CN(c4cccc(Cl)c4Cl)S(C)(=O)=O)cc3)c(Cl)nc2c1,,"inconclusive: 1.58 µM [inhibitor, full curve, poor fit]"
C=CCn1c(SCC(=O)NC2CCCC2)nnc1-c1ccccn1,inactive: -9.52%,
Cc1c(-c2ccccc2)sc2nc[nH]c(=S)c12,inactive: -3.64%,
CC(C)(C)c1ccc(N/N=C(\C#N)S(=O)(=O)C(C)(C)C)cc1,inactive: -1.98%,
COc1ccc(-n2c(-c3ccc(Br)cc3)c[n+]3c2CCc2ccccc2-3)cc1,,active: 5.01 µM
CCC(Oc1ccccc1)C(=O)Nc1ccc(S(=O)(=O)Nc2cc(C)on2)cc1 (configuration not stated),inactive: -2.81%,
Cc1cc(=O)[nH]c(SCC(=O)Nc2c(C)n(C)n(-c3ccccc3)c2=O)c1C#N,,"inconclusive: 0.794 µM [inhibitor, partial curve, poor fit]"
Cc1ccc(Cl)c(OC(=O)c2nn(C(C)C)c(=O)c3ccccc23)c1,,"inconclusive: 11.2 µM [inhibitor, single point]"
O=C(COc1ccccc1F)Nc1cc(S(=O)(=O)Nc2cccc(Cl)c2)ccc1O,inactive: 12.1%,
COc1ccccc1-c1sc2cc3c(cc2c1C#Cc1ccccn1)OCO3,,"inconclusive: 8.91 µM [inhibitor, single point]"
Cc1cc(NC(=O)CSc2nnc(C)o2)no1,inactive: 3%,
CCOc1cc(N2CCOCC2)c(OCC)cc1NC(=O)c1ccc(NC(C)=O)cc1,inactive: 2%,
COc1ccccc1NC(=O)NCCC1=CCCCC1,,"inconclusive: 0.891 µM [inhibitor, full curve, poor fit]"
NC(=O)CSc1nc2ccccc2c(=O)n1-c1ccccc1,inactive: -2.88%,
CN1\C(=C/C=C/C=C/C=[N+](C)C)C(C)(C)c2ccccc21,,"inconclusive: 12.6 µM [inhibitor, single point]"
O=C(Nc1nc2ccc(SC(F)F)cc2s1)c1ccc(NS(=O)(=O)c2ccc(F)c(F)c2)cc1,inactive: 1.26%,

# Ordered by count of non-hydrogen atoms (low to high): some entries from above
Structure (SMILES),"activity change, negative = inhibition",Potency
COc1ccccc1NC(=O)NCCC1=CCCCC1,,"inconclusive: 0.891 µM [inhibitor, full curve, poor fit]"
O=C1CCC(C(=O)N2CCCC(C(=O)c3ccc4ccccc4c3)C2)=NN1 (configuration not stated),,"inconclusive: 2.82 µM [inhibitor, full curve, poor fit]"
COc1ccc(-n2c(-c3ccc(Br)cc3)c[n+]3c2CCc2ccccc2-3)cc1,,active: 5.01 µM

# Continuation.

Structure (SMILES),"activity change, negative = inhibition",Potency
CCCCCCSc1ccc([C@H]2N[C@@](CC(C)C)(C(=O)OC)[C@H]3C(=O)N(C)C(=O)[C@@H]23)cc1OC,,"inconclusive: 11.2 µM [inhibitor, single point]"
Cc1cc(OCCCn2ccnc2)cc(C(C)C)c1,inactive: -4.03%,
CCCc1[nH]n(-c2nc3ccccc3s2)c(=O)c1C=NCCCN(CC)CC,inactive: -6.52%,
CCOC(=O)c1sc(NC(=O)CN2C(=O)NC3(CC(C)CC(C)(C)C3)C2=O)c(C(=O)OCC)c1C (configuration not stated),inactive: -1%,
O=C(NCc1ccccc1)c1ccc(Cl)c(NC2=NC3CS(=O)(=O)CC3S2)c1 (configuration not stated),,"inconclusive: 3.98 µM [inhibitor, partial curve]"
COc1cc(CNc2ccc3[nH]c(=O)[nH]c3c2)ccc1OCc1ccc(Cl)cc1,,"inconclusive: 11.2 µM [inhibitor, partial curve]"
O=C(Nc1cccc(C(=O)N2CCN(c3cccc(Cl)c3)CC2)c1)c1ccccc1,,"inconclusive: 14.1 µM [inhibitor, single point]"
CC(C)(C)C(=O)Nc1nc2cc3c(cc2s1)OCO3,,"inconclusive: 11.2 µM [inhibitor, partial curve]"
CCC(=O)N1N=C(c2ccc(NS(=O)(=O)c3ccc(C)cc3)cc2)CC1c1ccco1 (configuration not stated),,"inconclusive: 12.6 µM [inhibitor, single point]"
CCOC(=O)c1sc2nc(C)nc(NCc3ccc(F)cc3)c2c1C,inactive: 4.44%,
CCOC(=O)N1CCN(C(=O)C2CCCN(Cc3nc(-c4ccc(Cl)cc4)oc3C)C2)CC1 (configuration not stated),,"inconclusive: 28.2 µM [inhibitor, single point]"
Cc1ccc(NS(=O)(=O)c2cc3[nH]c(=O)c(=O)[nH]c3cc2C)c(C)c1,inactive: 8.59%,
Cc1ccc(C(=O)Nc2ccc3c(c2)OCCO3)cc1,inactive: -7.92%,
CCOc1cc(-c2nc3n(c(=O)c2C#N)CCS3)ccc1O,,"inconclusive: 3.16 µM [inhibitor, full curve, poor fit]"
CCC(CO)Oc1cc(NCc2ccc(C)c(C)c2)c2ncn(C(C)C)c2c1 (configuration not stated),,"inconclusive: 12.6 µM [inhibitor, single point]"
Cc1ccc(C)n1-c1nnc(N2CCC(C(=O)NCCCN3CC(C)CC(C)C3)CC2)s1 (configuration not stated),inactive: -8.8%,
CCOC(=O)c1sc2nc(C)nc(N3CCCCC3C)c2c1C (configuration not stated),inactive: -1.36%,
CN(C)c1ccc(/C=N/NC(=O)C(=O)/C=C2\NC3(CCCC3)Cc3ccccc32)cc1,,"inconclusive: 0.447 µM [inhibitor, full curve, poor fit]"
Cc1ccc2oc(C(=O)Nc3nnc(CC(C)C)s3)c(C)c2c1,inactive: -1.77%,
CCC(=O)Nc1cccc(-c2ccc(N3CCC(C)CC3)nn2)c1,,"inconclusive: 1.41 µM [inhibitor, full curve, poor fit]"
CC(NC(=O)c1sc2ccccc2c1Cl)C1CCCO1 (configuration not stated),,"inconclusive: 10 µM [inhibitor, partial curve, poor fit]"
O=C1CSC(=S)N1c1cccc(F)c1,,"inconclusive: 3.98 µM [inhibitor, full curve]"
COc1ccc(S(=O)(=O)N2CCN(c3ccc4nnc(-c5ccc(F)cc5)n4n3)CC2)cc1,,"inconclusive: 8.91 µM [inhibitor, partial curve, poor fit]"
